Measured values reported in patent US5273879, “Amplification method for polynucleotide assays” (Syntex (U.S.A.) Inc.).
Construct, isoform or probe ends are uncertain for at least one entry.

Tested on: DraI restriction endonuclease
Experiment: enzyme reaction in vitro
Settings: cleaves extended duplex at 37 C; no bands without DraI; purified native protein

Question: For “GTAAAACGACGGCCAGTGAATTC [23 base primer on M13mp19 Dra I clone]”, which “activity on this sequence” value is on record?
Answer: active
